# Primary screen of a compound library

By UniProt entry, the sequences of proteins in these tests, tags left out. Residues count along the entry.
UniProt P9WNZ1, whole entry: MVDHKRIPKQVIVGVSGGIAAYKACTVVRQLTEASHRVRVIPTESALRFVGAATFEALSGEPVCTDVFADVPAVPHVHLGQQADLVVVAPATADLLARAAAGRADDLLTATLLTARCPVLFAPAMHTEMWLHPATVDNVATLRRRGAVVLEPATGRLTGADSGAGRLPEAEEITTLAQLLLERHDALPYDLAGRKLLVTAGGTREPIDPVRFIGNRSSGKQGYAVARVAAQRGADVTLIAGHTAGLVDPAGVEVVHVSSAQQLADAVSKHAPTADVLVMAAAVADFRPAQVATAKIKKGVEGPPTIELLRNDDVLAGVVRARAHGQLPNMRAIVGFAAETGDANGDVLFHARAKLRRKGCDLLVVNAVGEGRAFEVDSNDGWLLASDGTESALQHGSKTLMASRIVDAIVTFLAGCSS
UniProt I6X8D2, whole entry: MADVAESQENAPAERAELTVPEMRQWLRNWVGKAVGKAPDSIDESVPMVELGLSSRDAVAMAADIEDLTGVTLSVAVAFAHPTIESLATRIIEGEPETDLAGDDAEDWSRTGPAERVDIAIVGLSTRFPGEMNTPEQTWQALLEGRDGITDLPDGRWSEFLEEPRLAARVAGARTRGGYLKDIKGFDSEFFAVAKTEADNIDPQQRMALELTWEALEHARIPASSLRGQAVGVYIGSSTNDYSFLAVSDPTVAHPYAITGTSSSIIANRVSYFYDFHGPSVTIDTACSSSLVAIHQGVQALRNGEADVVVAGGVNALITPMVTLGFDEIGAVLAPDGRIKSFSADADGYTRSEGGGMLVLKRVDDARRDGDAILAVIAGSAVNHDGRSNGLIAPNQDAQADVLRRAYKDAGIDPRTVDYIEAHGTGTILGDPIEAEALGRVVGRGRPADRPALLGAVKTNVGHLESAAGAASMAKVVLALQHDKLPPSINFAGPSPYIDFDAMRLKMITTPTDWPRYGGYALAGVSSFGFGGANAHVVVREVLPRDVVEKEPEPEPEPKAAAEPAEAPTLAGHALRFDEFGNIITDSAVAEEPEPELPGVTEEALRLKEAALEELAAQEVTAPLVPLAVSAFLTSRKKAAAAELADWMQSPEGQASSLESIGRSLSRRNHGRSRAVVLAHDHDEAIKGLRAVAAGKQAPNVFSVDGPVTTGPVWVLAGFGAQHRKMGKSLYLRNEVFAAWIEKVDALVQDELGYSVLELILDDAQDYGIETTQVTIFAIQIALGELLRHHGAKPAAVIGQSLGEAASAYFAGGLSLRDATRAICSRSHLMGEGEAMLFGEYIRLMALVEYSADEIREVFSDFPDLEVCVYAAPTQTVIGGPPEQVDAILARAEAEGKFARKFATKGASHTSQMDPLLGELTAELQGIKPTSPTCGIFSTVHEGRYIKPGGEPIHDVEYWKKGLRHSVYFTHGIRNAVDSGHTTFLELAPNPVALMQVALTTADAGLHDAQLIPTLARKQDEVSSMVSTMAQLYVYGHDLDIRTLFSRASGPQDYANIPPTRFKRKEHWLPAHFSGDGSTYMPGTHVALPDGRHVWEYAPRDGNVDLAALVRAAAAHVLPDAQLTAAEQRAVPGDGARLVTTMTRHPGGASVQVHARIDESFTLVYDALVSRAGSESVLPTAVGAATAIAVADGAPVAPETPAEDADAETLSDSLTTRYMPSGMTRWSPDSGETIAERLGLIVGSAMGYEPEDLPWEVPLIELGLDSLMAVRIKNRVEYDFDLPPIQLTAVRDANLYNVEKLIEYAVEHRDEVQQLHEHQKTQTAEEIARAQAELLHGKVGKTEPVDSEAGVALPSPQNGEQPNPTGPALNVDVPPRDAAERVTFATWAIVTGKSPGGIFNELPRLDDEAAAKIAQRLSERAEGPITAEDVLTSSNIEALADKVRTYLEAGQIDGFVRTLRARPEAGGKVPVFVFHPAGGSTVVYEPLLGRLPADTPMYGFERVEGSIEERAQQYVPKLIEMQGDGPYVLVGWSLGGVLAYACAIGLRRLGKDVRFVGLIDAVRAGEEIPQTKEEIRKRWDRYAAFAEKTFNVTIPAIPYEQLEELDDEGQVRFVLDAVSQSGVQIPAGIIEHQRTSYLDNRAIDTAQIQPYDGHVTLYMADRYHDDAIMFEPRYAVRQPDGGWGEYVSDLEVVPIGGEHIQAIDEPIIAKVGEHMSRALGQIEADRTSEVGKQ
UniProt P9WFT3, whole entry: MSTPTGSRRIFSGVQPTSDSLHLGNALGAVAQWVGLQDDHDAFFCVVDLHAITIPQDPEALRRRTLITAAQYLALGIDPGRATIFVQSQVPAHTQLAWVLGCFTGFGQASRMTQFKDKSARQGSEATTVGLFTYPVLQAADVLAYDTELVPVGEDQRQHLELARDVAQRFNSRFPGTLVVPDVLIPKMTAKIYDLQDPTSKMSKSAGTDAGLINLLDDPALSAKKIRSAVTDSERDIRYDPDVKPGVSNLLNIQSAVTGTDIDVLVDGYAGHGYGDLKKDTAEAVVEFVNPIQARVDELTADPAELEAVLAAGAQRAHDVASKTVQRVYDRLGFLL
UniProt A4I591, 1-473: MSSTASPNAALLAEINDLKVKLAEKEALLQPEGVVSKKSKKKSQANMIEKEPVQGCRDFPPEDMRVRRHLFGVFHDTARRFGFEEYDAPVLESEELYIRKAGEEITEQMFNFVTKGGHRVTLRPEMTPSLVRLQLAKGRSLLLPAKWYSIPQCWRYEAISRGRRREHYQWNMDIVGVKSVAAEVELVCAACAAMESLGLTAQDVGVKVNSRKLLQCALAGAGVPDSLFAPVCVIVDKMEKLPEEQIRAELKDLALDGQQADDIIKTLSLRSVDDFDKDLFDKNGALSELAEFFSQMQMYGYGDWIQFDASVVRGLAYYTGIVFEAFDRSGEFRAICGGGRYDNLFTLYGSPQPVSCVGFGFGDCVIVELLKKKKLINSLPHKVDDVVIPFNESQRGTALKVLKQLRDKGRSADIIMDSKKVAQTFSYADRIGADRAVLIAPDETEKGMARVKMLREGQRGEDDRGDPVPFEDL

Each number is a percent effect as filed. The controls that fix the scale are not given in the record; negative values are as filed. Compounds were drawn at random from those tested, without regard to their results. A dash means the value is not listed here; it may have been measured.

CoaBC: 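Coenzyme A biosynthesis protein CoaBC, Mycobacterium tuberculosis (UniProt P9WNZ1). Enzyme assay of CoaBC with a phosphate dye (Biomol Green) read at 650 nm. Concentration: 30 µM. Direction is inferred from only a few compounds that gave an IC50; most scored high, so higher reads as stronger inhibition. Most strong results did not repeat in a second test. About 67,000 compounds were tested under these conditions; 0.06% (about 40) showed 50% or more at least once.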
Pks13 thioesterase: 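Enzyme assay of the thioesterase domain of polyketide synthase 13; the read-out is not stated. Target: Polyketide synthase Pks13, Mycobacterium tuberculosis (UniProt I6X8D2). Tested at 30 µM. The record gives no direction; the compounds picked for IC50 retests had high values, so higher reads as stronger inhibition. Of about 67,000 compounds tested this way, about 300 (0.46%) reached 50% or more in at least one test.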
MtTrpRS: 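Enzyme assay of tryptophanyl-tRNA synthetase; the read-out is not stated. Target: Tryptophan-tRNA ligase, Mycobacterium tuberculosis (UniProt P9WFT3). Compounds at 10 µM. Higher most likely means stronger inhibition; the record gives no direction and few retests gave an IC50. Of about 65,000 compounds tested this way, about 64 (0.098%) reached 50% or more in at least one test.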
LiHisRS: 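Enzyme assay of histidyl-tRNA synthetase; the read-out is not stated. Target: Histidine-tRNA ligase, Leishmania infantum (UniProt A4I591). Concentration: 30 µM. Direction is inferred from retests: higher values go with stronger inhibition. The assay is labelled LdHisRS but filed under L. infantum. Of about 69,000 compounds tested this way, about 410 (0.6%) reached 50% or more in at least one test.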

SMILES | CoaBC | Pks13 thioesterase | MtTrpRS | LiHisRS
Cc1cnn(CC2CCCN2Cc2ncc(-c3ccc(F)cc3)o2)c1 (stereo not shown) | 0.9091 | -12.38 | 16.61 | 16.07
CCn1cnnc1CNc1nc(C)nc2scc(CC(C)C)c12 | 11.33 | -10.03 | 0.1514 | 12.94
CNC(=O)c1cn[nH]c1C1CCN(Cc2ccccc2OC)C1 (stereo not shown) | 6.057 | 7.211 | 2.667 | 10.34
O=C(c1cccc(Cn2ccnc2)c1)N1CCCC(n2ccnc2)C1 (stereo not shown) | 13.49 | -49.59 | -2.235 | 24.62
O=C(N[C@H]1CCCC[C@@H]1O)c1cccc(-c2nc3ccccc3[nH]2)c1 | 2.913 | 22.81 | - | 17.82
CC(=O)Nc1sc2c(c1C(=O)O)CCc1ccccc1-2 | 9.201 | - | 8.665 | 19.57
NCCn1cc(C(=O)N2CCCCCC2c2cccc(F)c2)nn1 (stereo not shown) | 2.237 | -7.375 | -2.202 | 1.149
CCC(C)(C)NC(=O)Cn1nc(C)nc1-c1ccccc1 | -11.29 | -0.8137 | -6.073 | 9.649
CC(SCC(=O)N(C)CC(=O)NC1CC1)c1ccc(F)c(F)c1 (stereo not shown) | 3.676 | -16.73 | -0.05974 | 24.05
CC(C)(C)CNC(=O)c1ccc(C(=O)O)cc1 | -5.729 | -20.32 | 5.744 | 23.6
CC(=O)N1CCN(C(=O)c2sc(-c3ccccc3F)nc2C)CC1 | -7.663 | -1.018 | -7.046 | -2.597
Cn1cc(CN(CC2(O)CCNC2)C2CCCCC2)cn1 (stereo not shown) | -16.69 | 23.45 | 1.028 | 12.24
CCc1nc2n(n1)CCCC2Nc1nc(C2CC2)ns1 (stereo not shown) | 4.551 | -28.15 | 3.903 | 6.452
CC(C)c1noc(CN(CCC2CCCCC2)CC(N)=O)n1 | 1.453 | -4.56 | -3.479 | 8.696
Cc1nc(C2CCCNC2)cc(N(Cc2nccn2C)C2CC2)n1 (stereo not shown) | -7.172 | -27.77 | 0.722 | 4.286
Cc1nc(NCc2nncn2C2CC2)c2c(CC(C)C)csc2n1 | 11.33 | -13.06 | 3.936 | 15.29
F[C@@H]1CN(CC2CC2)C[C@@H]1OCc1nc2ccccc2[nH]1 | 7.269 | 23.43 | 2.975 | 0
Cc1ccc(-c2csc3c(=O)[nH]c(N4CCCC(C(N)=O)C4)nc23)cc1 (stereo not shown) | 6.554 | -18.07 | -1.14 | 13.91
CC(CN(C)C(=O)c1cn(C)nc1-c1ccc(F)cc1F)C(=O)O (stereo not shown) | -2.893 | -4.33 | -0.7958 | 4
COc1cc(C)cc(OC)c1C(C(=O)O)N(C)Cc1c(C)nn(C)c1C (stereo not shown) | 8.754 | 0.1315 | 7.226 | 18.09
Nc1nc2nc(C3CCN(C(=O)c4cscn4)C3)ccc2s1 (stereo not shown) | 3.39 | -4.078 | - | 20.62
COc1ccccc1NC(=O)NCc1nnc(SC)n1C | 4.545 | 1.831 | -4.557 | 10.07
C=C(C)Cn1nc(C)c(CN2CCN(C3CCCCC3)C(=O)C2)c1C | 6.053 | -7.574 | -1.371 | 6.993
Cc1ccccc1CCNC(=O)C1CC(=O)N(CC(F)(F)F)C1 (stereo not shown) | -3.203 | -13.17 | 0.07825 | 28.57
Cc1nc(CN2CCOC(CN(C)c3cccnn3)C2)cs1 (stereo not shown) | 8.462 | -6.038 | 1.642 | 5.333
CCCSc1ncccc1C(=O)NCc1ccc(N(C)C)cc1 | -0.2427 | -21.37 | - | -3.96
CSCc1nc(CNC(=O)C2CCCN(C(=O)N(C)C)C2)cs1 (stereo not shown) | -15.91 | 6.91 | -1.338 | 5.479
CC(=O)c1ccc(N2CCN(C(=O)c3cc(C(C)C)nn3C)CC2)cc1 | 2.206 | 8.635 | 1.481 | 22.22
CSCC(CCO)NC(=O)Nc1cccc(Br)c1C (stereo not shown) | 1.646 | -1.857 | 1.088 | 13.25
CN(C)c1ncc(-c2c(-c3ccccc3)ncn2C(CO)C(=O)O)cn1 (stereo not shown) | -3.913 | -23.62 | -2.023 | 72.77
NC(=O)c1cc2c(nc1-c1ccc3c(c1)CCO3)CCC2 | 0.1242 | -9.011 | -3.907 | 10.83
COC(=O)COn1c(SC)nc2ccccc2c1=O | -0.5063 | 1.004 | -5.112 | 7.895
CCn1c(CN2CCCC(Cn3cncn3)C2)nc2c(F)cccc21 (stereo not shown) | -21.63 | -45.88 | -6.058 | 18.97
CN(C)C(=O)N1CCCn2nc(CNC(=O)CCc3ccsc3)cc2C1 | 1.794 | -44.97 | 0.08032 | 28.77
Cc1ccc(Oc2ncccc2C(=O)O)c(C)c1 | 3.883 | 9.23 | - | 15.84
COCCNC(=O)NC(=O)CNc1c(F)cccc1N1CCCC1 | 3.944 | -6.877 | -2.079 | 12.2
Cc1ccc(NC(=O)c2n[nH]c(-n3cnnc3)n2)cc1 | 1.386 | -1.906 | -2.332 | 12.07
Cc1cc(C)n(CC(=O)N2CCCCC2CCN(C)C)c(=O)n1 (stereo not shown) | 0.6734 | -3.205 | -2.452 | 15.96
c1ccc(COCC2CNCc3nccn3C2)nc1 (stereo not shown) | - | -27.01 | -5.07 | 5.172
CS(=O)(=O)N1CCCC(c2nc(-c3ccccc3)c[nH]2)C1 (stereo not shown) | -0.6424 | -23.78 | -3.48 | 6.667
N#Cc1ccccc1C(=O)N1C[C@@H](CN2CCCCCC2)[C@@H](CO)C1 | -23.33 | -37.51 | -2.008 | 28.77
COc1ccc(-c2nc(CN3CCN(CCO)CC3)co2)cc1 | 1.205 | -29.53 | 3.277 | 16.44
COc1ccc(C(=O)NS(=O)(=O)c2cc(Cl)sc2Cl)cc1OC(F)F | -14.46 | -9.613 | 3.693 | 8.036
CN(C)S(=O)(=O)N1C[C@@H](OCc2cccnc2)[C@H]2OCCC[C@H]21 | -7.563 | 0.2599 | -5.057 | 1.818
CC(=O)N1CCN(Cc2ccc(OCc3nccn3C)cc2)CC1 | 0.9032 | -12.71 | -2.142 | 13.91

Some entries from above, unchanged:

| SMILES | CoaBC | Pks13 thioesterase | MtTrpRS | LiHisRS |
|---|---|---|---|---|
| `Cc1ccc(Oc2ncccc2C(=O)O)c(C)c1` | 3.883 | 9.23 | - | 15.84 |
| `O=C(c1cccc(Cn2ccnc2)c1)N1CCCC(n2ccnc2)C1` (stereo not shown) | 13.49 | -49.59 | -2.235 | 24.62 |
| `Cc1ccc(NC(=O)c2n[nH]c(-n3cnnc3)n2)cc1` | 1.386 | -1.906 | -2.332 | 12.07 |
| `c1ccc(COCC2CNCc3nccn3C2)nc1` (stereo not shown) | - | -27.01 | -5.07 | 5.172 |
| `CNC(=O)c1cn[nH]c1C1CCN(Cc2ccccc2OC)C1` (stereo not shown) | 6.057 | 7.211 | 2.667 | 10.34 |

From ChEMBL document CHEMBL3988442, “University of Dundee, Small-Polar-MMV Screening Library” (2021).